PubChem BioAssay AID1259254, NCATS | 2017

- Screen: 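Finding genes that stop cells copying their DNA twice in one cycle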 (primary screen)
- Cells: human HCT116 colorectal cancer cells
- Knock-down reagent: single siRNA against human genes
- Timing: 3 days
- Measurement: 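Nuclei stained with Hoechst and imaged; cell-cycle phase assigned by DNA content; G2 share scaled per plate, non-targeting siRNA 0%, GMNN siRNA 100%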
- Reading the numbers: G2 robust z-score: higher = more G2 cells, more excess DNA replication
- Hit rule: 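Active siRNAs have a G2 robust z of 5 or more median absolute deviations over the median, which in these data means about 38% or higher of GMNN control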
Shown is one part, drawn at random, of about 59,000 reagents tested. About 1,550 of them (2.6%) were called active. 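G2 share is only a proxy for re-replication; each gene was hit by three separate siRNAs, and active genes were retested.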 Unmarked entries are inactive. The numbers tell different reagents against one gene apart. Further read-outs or replicates are left out here. Not given: the amount of reagent.

For ZNF275 #1 the deposit lists G2 robust z-score -0.811.
Silencing of ZNF275 #2 gave: G2 robust z-score -0.62.
For ZNF275 #3 the deposit lists G2 robust z-score -0.348.
SYT3 #1 scored G2 robust z-score -0.522.
Against SYT3 #2, the entry reads G2 robust z-score 3.
For SYT3 #3 the deposit lists G2 robust z-score -0.875.
For MAEL #1, the entry reads G2 robust z-score -0.0847.
Against MAEL #2, the values are G2 robust z-score 0.237.
Silencing of MAEL #3 gave: G2 robust z-score -0.126.
With knock-down of FRG1JP #1, the record shows G2 robust z-score -0.598.
FRG1JP #2 showed G2 robust z-score -0.452.
Knock-down of FRG1JP #3 came out at: G2 robust z-score 0.86.

Targets above whose target name starts with M or m:
MAEL #1 | G2 robust z-score = -0.0847
MAEL #2 | G2 robust z-score = 0.237
MAEL #3 | G2 robust z-score = -0.126
